PubChem BioAssay AID602196 | INSERM – 2012
The deposit covers about 23,000 reagents; shown is a part drawn at random. 455 of them (2%) were called active. 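Active includes both protection and sensitisation; some change values fall well beyond the stated -50 to +50 range.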 Not given: the amount of reagent.

- Assay: 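Genes whose knock-down alters cisplatin killing of lung cancer cells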
- Cells: human A549 lung cancer cells
- Reagents: siRNA pair against human genes
- Timing: 48 h transfection before cisplatin; time from cisplatin to read-out not stated
- Conditions: cisplatin at a dose killing half of control-siRNA cells; exact dose and duration not given
- Measurement: 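Cisplatin cell death as a shift from the 50% death seen with control siRNA; siRNAs toxic or growth-blocking alone scored 0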
- Direction: two-siRNA summed score (-2 to +2): higher = both siRNAs protect from cisplatin killing; -2 means both sensitise; mean protection from cisplatin (shift in death) and protection from cisplatin (shift in death), siRNA C and protection from cisplatin (shift in death), siRNA D: higher = protection from cisplatin killing
- Active means: 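siRNAs harmful alone (LDH or WST-1) get 0; others get +1 for less and -1 for more cisplatin killing; genes are active when the two siRNAs give the same sign, summing to ±2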
- Meaning of the calls: active = both siRNAs shift cisplatin killing the same way; inactive = no consistent shift, or siRNA harmful alone

gene knocked down | two-siRNA summed score (-2 to +2) | mean protection from cisplatin (shift in death) (%) | protection from cisplatin (shift in death), siRNA C (%) | protection from cisplatin (shift in death), siRNA D (%) | Call
PSG11 (GeneID 5680) | -1 | -5.7 | -18.8 | 7.4 | inactive
RBBP9 (GeneID 10741) | 0 | 6.1 | 8 | 4.1 | inactive
LOC440502 | 0 | 7.3 | 11.1 | 3.6 | inactive
ACSL5 (GeneID 51703) | 0 | 9.5 | 5.9 | 13.2 | inactive
CHRM1 (GeneID 1128) | 1 | 3.7 | -0.1 | 7.4 | inactive
LOC441381 | 0 | 1.8 | 6.6 | -3 | inactive
MAPK13 (GeneID 5603) | 0 | 0.8 | 4.9 | -3.2 | inactive
L3HYPDH (GeneID 112849) | 0 | -1 | -7.7 | 5.7 | inactive
PCGF6 (GeneID 84108) | 0 | 0.1 | 6.6 | -6.5 | inactive
SIPA1L2 (GeneID 57568) | 0 | 11.7 | 18.5 | 4.8 | inactive
MT1JP (GeneID 4498) | 0 | 1.6 | -1.7 | 4.9 | inactive
HMGN1 (GeneID 3150) | 0 | -6.1 | -10.6 | -1.6 | inactive
LEMD1 (GeneID 93273) | 0 | -8.6 | -1.7 | -15.6 | inactive
LRRC4C (GeneID 57689) | -1 | -8.2 | -35.4 | 19 | inactive
WIPI1 (GeneID 55062) | 0 | 4.5 | 9.3 | -0.3 | inactive
BEST1 (GeneID 7439) | 0 | -9.8 | -7.7 | -11.9 | inactive
USP20 (GeneID 10868) | 0 | 8.6 | 8.9 | 8.3 | inactive
PRKCA (GeneID 5578) | 0 | 10.9 | 21.7 | 0.2 | inactive
PPP1R16A (GeneID 84988) | 0 | 3.4 | 12.6 | -5.8 | inactive
LSS (GeneID 4047) | 0 | -11.2 | -18.1 | -4.3 | inactive
CACNG4 (GeneID 27092) | 0 | 18.3 | 18.5 | 18 | inactive
IGHV4OR15-8 (GeneID 28317) | 1 | 11.8 | 15.4 | 8.1 | inactive
TSPAN2 (GeneID 10100) | 0 | 4.4 | 6.7 | 2.1 | inactive

Part of the list above in another layout.
LSS (GeneID 4047)
- two-siRNA summed score (-2 to +2): 0
- mean protection from cisplatin (shift in death) (%): -11.2
- protection from cisplatin (shift in death), siRNA C (%): -18.1
- protection from cisplatin (shift in death), siRNA D (%): -4.3
- Call: inactive

CACNG4 (GeneID 27092)
- two-siRNA summed score (-2 to +2): 0
- mean protection from cisplatin (shift in death) (%): 18.3
- protection from cisplatin (shift in death), siRNA C (%): 18.5
- protection from cisplatin (shift in death), siRNA D (%): 18
- Call: inactive

IGHV4OR15-8 (GeneID 28317)
- two-siRNA summed score (-2 to +2): 1
- mean protection from cisplatin (shift in death) (%): 11.8
- protection from cisplatin (shift in death), siRNA C (%): 15.4
- protection from cisplatin (shift in death), siRNA D (%): 8.1
- Call: inactive

TSPAN2 (GeneID 10100)
- two-siRNA summed score (-2 to +2): 0
- mean protection from cisplatin (shift in death) (%): 4.4
- protection from cisplatin (shift in death), siRNA C (%): 6.7
- protection from cisplatin (shift in death), siRNA D (%): 2.1
- Call: inactive
